The list shows a part of the results.
Experiments:
Assay in all cases: log2 fold change, soluble protein after heating vs DMSO (PISA); higher = thermal stabilisation; K562 lysate, 10 uM; active = over 0.2 and 3.5 SD of the protein, either way, in both replicates (recomputed)
nilotinib = compound: Cc1cn(-c2cc(NC(=O)c3ccc(C)c(Nc4nccc(-c5cccnc5)n4)c3)cc(C(F)(F)F)c2)cn1 [nilotinib]
How it was run: (§1)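 Soluble protein was defined as the supernatant remaining after 21,000xg for 90 min, following pooling of heated aliquots and adjustment to 0.5% NP-40 at 4°C. Before that, crude K562 extract at 1 mg/mL protein in PBS pH 7.4 with 1 mM MgCl2 was treated with 10 μM compound for 30 min and heated for 3 min across 48°C-58°C. Quantification used TMTpro 16plex LC-MS/MS with channel sums equalised, and values are log-two fold changes in thermal stability relative to solvent controls from duplicates.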

The chains behind the UniProt entries cited, without tags or fusion partners. Where a name states a change or a piece, a line headed by the entry shows the natural chain unless it says otherwise.
UniProt Q9H2S9: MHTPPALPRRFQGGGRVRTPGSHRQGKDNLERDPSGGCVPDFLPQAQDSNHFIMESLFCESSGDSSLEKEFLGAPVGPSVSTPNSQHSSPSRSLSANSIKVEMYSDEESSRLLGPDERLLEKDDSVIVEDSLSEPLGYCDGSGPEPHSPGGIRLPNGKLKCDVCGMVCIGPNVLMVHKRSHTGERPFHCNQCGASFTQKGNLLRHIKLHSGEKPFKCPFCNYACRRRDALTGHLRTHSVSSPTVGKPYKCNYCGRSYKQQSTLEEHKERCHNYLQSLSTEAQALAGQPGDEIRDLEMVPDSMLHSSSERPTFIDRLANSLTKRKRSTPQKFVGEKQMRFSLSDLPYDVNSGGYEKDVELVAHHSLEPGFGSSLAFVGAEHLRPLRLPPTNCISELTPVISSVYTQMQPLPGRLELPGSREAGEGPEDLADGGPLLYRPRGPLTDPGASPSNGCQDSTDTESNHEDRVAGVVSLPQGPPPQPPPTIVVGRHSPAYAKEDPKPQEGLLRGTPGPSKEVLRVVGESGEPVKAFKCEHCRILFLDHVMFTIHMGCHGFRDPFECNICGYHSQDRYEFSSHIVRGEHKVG
UniProt Q9Y2H2: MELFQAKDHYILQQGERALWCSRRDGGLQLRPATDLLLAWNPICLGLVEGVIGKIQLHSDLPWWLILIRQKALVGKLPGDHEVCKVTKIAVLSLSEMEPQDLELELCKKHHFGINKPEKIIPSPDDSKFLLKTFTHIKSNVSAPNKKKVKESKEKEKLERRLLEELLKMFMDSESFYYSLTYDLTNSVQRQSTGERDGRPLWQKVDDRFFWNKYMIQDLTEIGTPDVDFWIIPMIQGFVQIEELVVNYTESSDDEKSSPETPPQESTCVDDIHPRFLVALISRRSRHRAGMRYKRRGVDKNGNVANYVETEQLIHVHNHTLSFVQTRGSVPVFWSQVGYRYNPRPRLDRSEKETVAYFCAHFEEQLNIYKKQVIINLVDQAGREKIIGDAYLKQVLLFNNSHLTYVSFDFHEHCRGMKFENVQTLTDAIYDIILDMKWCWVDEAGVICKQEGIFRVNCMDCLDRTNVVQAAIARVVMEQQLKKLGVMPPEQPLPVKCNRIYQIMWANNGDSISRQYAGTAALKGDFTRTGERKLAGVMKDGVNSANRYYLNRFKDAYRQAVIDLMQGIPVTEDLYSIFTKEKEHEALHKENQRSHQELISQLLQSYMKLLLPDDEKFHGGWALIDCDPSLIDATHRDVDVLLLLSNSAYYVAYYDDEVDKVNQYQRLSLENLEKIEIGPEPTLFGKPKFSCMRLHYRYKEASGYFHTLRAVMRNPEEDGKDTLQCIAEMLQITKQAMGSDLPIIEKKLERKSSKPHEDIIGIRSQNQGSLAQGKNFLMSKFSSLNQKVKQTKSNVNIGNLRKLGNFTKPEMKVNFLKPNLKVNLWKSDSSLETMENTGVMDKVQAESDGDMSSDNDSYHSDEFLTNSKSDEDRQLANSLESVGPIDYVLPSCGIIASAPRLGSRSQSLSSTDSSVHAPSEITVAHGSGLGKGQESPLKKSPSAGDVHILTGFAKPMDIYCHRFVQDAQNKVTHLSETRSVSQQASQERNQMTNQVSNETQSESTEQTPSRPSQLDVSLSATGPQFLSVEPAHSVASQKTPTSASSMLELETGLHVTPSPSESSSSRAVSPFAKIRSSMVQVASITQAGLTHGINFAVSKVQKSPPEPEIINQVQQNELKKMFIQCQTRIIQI
UniProt P58166: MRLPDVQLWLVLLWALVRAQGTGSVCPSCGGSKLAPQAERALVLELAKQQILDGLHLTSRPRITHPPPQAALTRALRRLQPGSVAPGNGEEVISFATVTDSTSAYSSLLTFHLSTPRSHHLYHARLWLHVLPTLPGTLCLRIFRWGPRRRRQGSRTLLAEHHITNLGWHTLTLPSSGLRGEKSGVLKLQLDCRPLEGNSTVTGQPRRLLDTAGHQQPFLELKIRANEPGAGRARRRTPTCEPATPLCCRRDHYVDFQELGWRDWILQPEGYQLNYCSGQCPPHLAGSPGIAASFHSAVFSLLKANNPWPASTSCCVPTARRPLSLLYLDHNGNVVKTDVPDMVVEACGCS
IGKV3D-7, A0A0C4DH55, UniProt A0A0C4DH55, whole entry, looked up: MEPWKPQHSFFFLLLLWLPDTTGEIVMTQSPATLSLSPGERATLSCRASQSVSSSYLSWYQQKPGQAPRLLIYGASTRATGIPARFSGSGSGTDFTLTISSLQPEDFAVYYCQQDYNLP
UniProt P17181: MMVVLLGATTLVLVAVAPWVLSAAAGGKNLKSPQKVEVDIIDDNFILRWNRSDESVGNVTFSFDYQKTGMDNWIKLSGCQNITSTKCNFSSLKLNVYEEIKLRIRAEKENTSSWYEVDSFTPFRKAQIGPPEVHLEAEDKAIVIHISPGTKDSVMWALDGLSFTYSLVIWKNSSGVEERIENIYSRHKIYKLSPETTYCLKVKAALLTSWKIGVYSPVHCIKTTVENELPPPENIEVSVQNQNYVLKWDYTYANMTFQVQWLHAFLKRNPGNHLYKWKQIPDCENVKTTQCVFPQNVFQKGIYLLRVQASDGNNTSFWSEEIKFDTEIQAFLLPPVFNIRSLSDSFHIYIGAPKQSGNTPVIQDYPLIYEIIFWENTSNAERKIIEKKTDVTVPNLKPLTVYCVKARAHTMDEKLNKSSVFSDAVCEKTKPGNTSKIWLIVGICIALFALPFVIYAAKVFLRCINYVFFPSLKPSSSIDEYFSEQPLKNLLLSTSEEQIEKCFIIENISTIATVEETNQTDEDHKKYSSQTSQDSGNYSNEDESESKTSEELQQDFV
UniProt P01860, whole entry, looked up: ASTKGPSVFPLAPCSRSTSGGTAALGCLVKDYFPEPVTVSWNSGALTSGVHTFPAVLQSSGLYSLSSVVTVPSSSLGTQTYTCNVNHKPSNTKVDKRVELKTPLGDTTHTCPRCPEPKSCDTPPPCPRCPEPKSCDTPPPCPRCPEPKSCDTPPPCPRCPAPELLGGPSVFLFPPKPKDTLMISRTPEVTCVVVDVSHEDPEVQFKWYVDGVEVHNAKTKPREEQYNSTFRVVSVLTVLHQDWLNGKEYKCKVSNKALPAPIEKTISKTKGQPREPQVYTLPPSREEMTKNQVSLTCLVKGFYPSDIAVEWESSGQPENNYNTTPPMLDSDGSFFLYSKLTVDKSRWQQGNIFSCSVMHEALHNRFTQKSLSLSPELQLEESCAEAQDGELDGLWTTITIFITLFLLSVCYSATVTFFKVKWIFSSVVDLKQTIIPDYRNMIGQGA
UniProt Q13099: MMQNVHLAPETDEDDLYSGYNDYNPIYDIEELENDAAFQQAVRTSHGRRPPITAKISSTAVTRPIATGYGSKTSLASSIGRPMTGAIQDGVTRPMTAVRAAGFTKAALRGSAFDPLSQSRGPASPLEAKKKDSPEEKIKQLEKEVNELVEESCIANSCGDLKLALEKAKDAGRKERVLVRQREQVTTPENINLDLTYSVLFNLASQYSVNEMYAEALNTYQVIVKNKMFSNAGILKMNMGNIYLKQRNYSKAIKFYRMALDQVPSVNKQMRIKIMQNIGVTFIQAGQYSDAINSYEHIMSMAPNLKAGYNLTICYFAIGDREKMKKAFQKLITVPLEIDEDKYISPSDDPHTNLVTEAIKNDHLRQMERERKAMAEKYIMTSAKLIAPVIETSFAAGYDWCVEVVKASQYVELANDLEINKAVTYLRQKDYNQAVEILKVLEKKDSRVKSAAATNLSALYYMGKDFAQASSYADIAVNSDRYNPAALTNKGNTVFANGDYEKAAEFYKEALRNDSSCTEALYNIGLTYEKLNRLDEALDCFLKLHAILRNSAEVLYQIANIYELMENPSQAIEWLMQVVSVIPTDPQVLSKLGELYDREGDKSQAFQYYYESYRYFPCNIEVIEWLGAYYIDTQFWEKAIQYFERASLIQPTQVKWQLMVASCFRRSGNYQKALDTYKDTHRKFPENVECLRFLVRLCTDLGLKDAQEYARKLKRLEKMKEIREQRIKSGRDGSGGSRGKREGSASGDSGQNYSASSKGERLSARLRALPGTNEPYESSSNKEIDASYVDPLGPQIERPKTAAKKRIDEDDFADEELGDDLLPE
UniProt Q9Y2F5: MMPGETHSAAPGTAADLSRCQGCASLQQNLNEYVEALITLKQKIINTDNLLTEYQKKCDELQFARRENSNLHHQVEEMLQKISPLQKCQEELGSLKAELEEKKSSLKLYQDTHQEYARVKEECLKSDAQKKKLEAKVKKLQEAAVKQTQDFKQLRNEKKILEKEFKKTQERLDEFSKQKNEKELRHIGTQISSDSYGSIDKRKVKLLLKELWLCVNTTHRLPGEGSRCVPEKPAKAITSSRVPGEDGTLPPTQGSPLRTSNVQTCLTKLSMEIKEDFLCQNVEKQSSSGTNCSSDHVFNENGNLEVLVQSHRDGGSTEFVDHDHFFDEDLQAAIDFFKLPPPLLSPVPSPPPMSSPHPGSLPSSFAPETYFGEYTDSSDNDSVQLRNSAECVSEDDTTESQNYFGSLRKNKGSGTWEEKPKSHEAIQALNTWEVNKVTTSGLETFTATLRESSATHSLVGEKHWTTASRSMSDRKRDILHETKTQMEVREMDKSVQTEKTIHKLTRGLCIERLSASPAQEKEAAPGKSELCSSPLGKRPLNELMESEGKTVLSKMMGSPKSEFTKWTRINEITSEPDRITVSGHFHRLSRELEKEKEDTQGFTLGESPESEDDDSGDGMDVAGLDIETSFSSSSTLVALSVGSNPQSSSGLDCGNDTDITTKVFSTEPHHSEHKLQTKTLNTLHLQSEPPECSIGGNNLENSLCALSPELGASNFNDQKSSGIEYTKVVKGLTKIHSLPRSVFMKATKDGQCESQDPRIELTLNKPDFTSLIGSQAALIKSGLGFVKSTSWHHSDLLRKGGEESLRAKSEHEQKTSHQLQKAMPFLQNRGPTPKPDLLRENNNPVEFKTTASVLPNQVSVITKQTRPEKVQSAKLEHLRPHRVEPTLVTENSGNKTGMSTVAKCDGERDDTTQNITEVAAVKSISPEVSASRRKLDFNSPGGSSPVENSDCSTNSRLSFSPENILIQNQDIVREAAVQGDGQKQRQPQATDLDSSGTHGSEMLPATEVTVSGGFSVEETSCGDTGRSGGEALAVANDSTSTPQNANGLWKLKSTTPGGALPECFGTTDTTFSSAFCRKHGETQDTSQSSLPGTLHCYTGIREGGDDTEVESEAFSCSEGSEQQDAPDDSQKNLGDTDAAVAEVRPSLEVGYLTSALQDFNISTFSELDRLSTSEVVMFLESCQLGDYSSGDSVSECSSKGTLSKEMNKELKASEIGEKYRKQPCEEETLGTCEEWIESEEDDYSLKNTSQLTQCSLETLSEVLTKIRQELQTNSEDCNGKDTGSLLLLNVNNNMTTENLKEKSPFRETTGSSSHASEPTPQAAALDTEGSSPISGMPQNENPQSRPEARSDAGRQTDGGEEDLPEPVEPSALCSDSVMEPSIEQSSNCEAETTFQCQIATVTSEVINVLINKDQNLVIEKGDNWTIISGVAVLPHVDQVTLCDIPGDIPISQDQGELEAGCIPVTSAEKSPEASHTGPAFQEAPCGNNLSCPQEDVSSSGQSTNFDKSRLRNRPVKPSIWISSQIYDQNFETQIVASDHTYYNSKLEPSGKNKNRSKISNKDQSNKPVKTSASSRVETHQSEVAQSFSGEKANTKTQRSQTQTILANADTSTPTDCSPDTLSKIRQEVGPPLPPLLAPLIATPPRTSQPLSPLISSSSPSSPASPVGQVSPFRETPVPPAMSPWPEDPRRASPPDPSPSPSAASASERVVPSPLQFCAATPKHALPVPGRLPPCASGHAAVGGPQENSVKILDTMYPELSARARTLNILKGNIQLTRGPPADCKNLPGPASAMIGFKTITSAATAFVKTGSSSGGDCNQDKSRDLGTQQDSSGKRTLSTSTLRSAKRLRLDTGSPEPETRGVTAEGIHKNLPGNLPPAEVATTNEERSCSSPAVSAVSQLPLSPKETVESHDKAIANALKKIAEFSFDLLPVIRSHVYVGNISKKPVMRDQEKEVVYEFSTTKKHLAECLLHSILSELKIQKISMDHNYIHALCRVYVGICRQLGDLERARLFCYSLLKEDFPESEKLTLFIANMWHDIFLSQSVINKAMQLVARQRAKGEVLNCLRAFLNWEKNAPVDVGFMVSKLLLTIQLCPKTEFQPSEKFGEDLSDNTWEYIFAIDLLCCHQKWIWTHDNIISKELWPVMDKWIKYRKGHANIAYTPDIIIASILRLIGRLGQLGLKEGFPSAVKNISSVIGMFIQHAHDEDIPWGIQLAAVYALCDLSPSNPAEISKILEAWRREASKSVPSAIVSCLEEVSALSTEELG

[1] = compound: Cc1nc(Nc2n[nH]c3c2CN(C(=O)N[C@H](CN(C)C)c2ccccc2)C3(C)C)c2sccc2n1
How it was run: as §1

[2] = compound: Cc1ncc(-c2ccnc(Nc3ccc(S(C)(=O)=O)cc3)n2)n1C(C)C
How it was run: as §1

quisinostat = compound: Cn1cc(CNCC2CCN(c3ncc(C(=O)NO)cn3)CC2)c2ccccc21 [quisinostat]
How it was run: as §1

tipifarnib = compound: Cn1cncc1[C@@](N)(c1ccc(Cl)cc1)c1ccc2c(c1)c(-c1cccc(Cl)c1)cc(=O)n2C [tipifarnib]
How it was run: as §1

[3] = compound: NC(=O)Nc1cc(-c2cccc(F)c2)sc1C(=O)N[C@H]1CCCNC1
How it was run: as §1

[4] = compound: NC(=O)c1cnc(N[C@@H]2CCCC[C@@H]2N)nc1Nc1cccc(-n2nccn2)c1
How it was run: as §1

[5] = compound: O=C1NC(=O)C(c2cnc3ccccn23)=C1c1cn2c3c(cc(F)cc13)CN(C(=O)N1CCCCC1)CC2
How it was run: as §1

entospletinib = compound: c1cn2cc(-c3ccc4cn[nH]c4c3)nc(Nc3ccc(N4CCOCC4)cc3)c2n1 [entospletinib]
How it was run: as §1

dasatinib = compound: Cc1nc(Nc2ncc(C(=O)Nc3c(C)cccc3Cl)s2)cc(N2CCN(CCO)CC2)n1 [dasatinib]
How it was run: as §1

[6] = compound: Cn1cc(-c2ccc3c(c2)CCN3C(=O)Cc2cccc(C(F)(F)F)c2)c2c(N)ncnc21
How it was run: as §1

[7] = compound: NC1(c2ccc(-c3nc4ccn5c(=O)[nH]nc5c4cc3-c3ccccc3)cc2)CCC1
How it was run: as §1

[8] = compound: NCC(=O)Nc1ccc(-n2nc(C(F)(F)F)cc2-c2ccc3c(ccc4ccccc43)c2)cc1
How it was run: as §1

vorinostat = compound: O=C(CCCCCCC(=O)Nc1ccccc1)NO [vorinostat]
How it was run: as §1

silmitasertib = compound: O=C(O)c1ccc2c(c1)nc(Nc1cccc(Cl)c1)c1ccncc12 [silmitasertib]
How it was run: as §1

Measured: log2 fold change

IKZF4 (UniProt Q9H2S9)
inactive: nilotinib -0.134 | [1] 0.073 | [2] -0.112 | quisinostat -0.079 | tipifarnib 0.081 | [3] 0.013 | [4] -0.071 | [5] -0.032 | entospletinib -0.095

INPP5F (UniProt Q9Y2H2)
inactive: nilotinib 0.143 | [1] -0.068 | dasatinib 0.01 | [2] 0.603 | [6] -0.146 | tipifarnib -0.014 | [4] 0.075 | [7] -0.211 | [8] 0.37 | vorinostat -0.284 | silmitasertib -0.115 | entospletinib 0.029

HSPBP1 (UniProt K7EMM7)
inactive: dasatinib -0.073 | [6] 0.061

INHBE (UniProt P58166)
inactive: nilotinib 0.032 | [1] -0.073 | [2] 0.121 | quisinostat -0.096 | tipifarnib 0.071 | [3] -0.098 | [7] 0.027 | vorinostat -0.053 | silmitasertib 0.009 | [5] -0.284

IGKV3D-7, A0A0C4DH55
inactive: nilotinib 0.126 | [1] -0.151 | [2] -0.221 | tipifarnib -0.235 | [7] 0.336 | vorinostat -0.145 | silmitasertib -0.113

IFNAR1 (UniProt P17181)
inactive: dasatinib -0.044 | [6] 0.092 | quisinostat -0.094 | [3] 0.084 | [5] 0.046

IGLC3 (UniProt P0DOY3)
inactive: nilotinib 0.009 | [1] -0.095 | dasatinib -0.234 | [2] 0.004 | [6] 0.607 | tipifarnib -0.217 | [7] 0.863 | vorinostat 0.056 | silmitasertib -0.035

HTD2 (UniProt P86397)
inactive: nilotinib 0.195 | [1] -0.07 | [2] 0.079 | quisinostat 0.021 | tipifarnib -0.228 | [3] 0.015 | [4] -0.064 | [8] 0.02 | [5] 0.012 | entospletinib 0.038

IGHG3 (UniProt P01860)
inactive: nilotinib 0.355 | [1] -0.106 | [2] 0 | tipifarnib -0.344 | [4] 0.265

IFT88 (UniProt Q13099)
inactive: nilotinib 0.163 | [1] -0.03 | [2] 0.193 | quisinostat -0.292 | tipifarnib -0.431 | [3] 0.089 | [5] 0.021

ICE1 (UniProt Q9Y2F5)
inactive: nilotinib 0.045 | [1] -0.1 | dasatinib -0.064 | [2] 0.011 | [6] -0.066 | quisinostat -0.075 | tipifarnib -0.018 | [3] -0.143 | [5] 0.015 | entospletinib -0.184

Source: the supplement of paper PMC10849652
